# Measurements from PubChem BioAssay AID652283 (National Center for Advancing Translational Sciences (NCATS), 2013).
# The shares of active, inactive and inconclusive entries below differ from those in the screen. Potencies of inconclusive entries are doubtful fits and often do not repeat. Calls of active or inactive are those of the source. The call rests on the fitted dose curve; in most records, active means well fitted inhibition curve with a large enough effect; inconclusive means small, poorly fitted or top-dose-only effect; inactive means no such curve, though single readings can be large or run the other way.
# Assay: qHTS Assay for Lipid Storage Modulators: COS7 Assay against Probe and Analogs
# Conditions: COS7 lipid droplet area, BODIPY imaging, 18 h
# Text: Storing lipids as a reservoir for energy or the anabolism of elementary metabolites is a common feature of probably all cells and is conserved from bacteria to humans. The universal cellular lipid storage organelle is the so-called lipid storage droplet (LD). Although ubiquitous, LDs share a simple structure composed of a hydrophobic core that harbors the storage lipids, which is shielded by a droplet-specific phospholipid monolayer to which proteins are attached. The current model of LD biogenesis involves an incorporation of the lipid core into the membrane leaflets of the endoplasmic reticulum (ER) followed by a subsequent budding-like maturation of a LD, which ultimately pinches off. Once released, LD volume can increase by localized lipogenesis or fusion of existing droplets. Storage lipids are re-mobilized enzymatically by lipase activity. Lipase regulation in the adipocyte is heavily studied and involves multiple components including catecholamine signaling, the LD-associated proteins Perilipin and comparative gene identification-58 (CGI-58) and at least two lipases named hormone sensitive lipase (HSL) and adipocyte triglyceride lipase (ATGL). LD regulation outside of the adipocyte is poorly understood and only few components are known. However, there is an urgent need to learn more about ectopic fat depots as mislocalized storage of lipids, for example in the liver or muscle, is an eminent health problem associated with insulin resistance or the metabolic syndrome. We developed a laser-scanning cytometer assay to enable 1,536-well screening and combined the results of the small molecules screen with an RNAi database based on lipid storage. In this assay we tested analogs of the probe against a mammalian cell line (COS7), to see if these small molecules could disrupt lipid storage. NIH Molecular Libraries Probe Production Centers Network [MLPCN] NIH Chemical Genomics Center [NCGC] MLPCN Grant: MH085686 Assay Submitter (PI): Mathias Beller, Max-Planck-Institut fur Biophysikalische Chemie
# COS7 cells were obtained from ATCC (CRL-1651), 5500 cells/well were dispensed into Corning 96 well imaging plate (catalog # 3340), and cultured in 100 uL of 1:1 DMEM medium (PAA) contain 10% fetal bovine serum (FBS) for 24 hours at 37 degrees C, 95% humidity, and 5% CO2. The medium was exchanged for compound treatment. Compound treatment occurred in 150 microL serum reduced medium (5% FBS) and 0.2% DMSO in presence of 400 microM oleic acid for 17-18 h. Cells were then fixed (3.7 % formaldehyde in PBS, 5 min), permeabilized (0.1% Triton X100, 5 min) and washed three times with PBS. Lipid droplets (1:2000 BODIPY 493/503) and nuclei (1:1000 Hoechst 33342) were stained for 1h. Imaging was performed in a Zeiss Axiovert automatic microscope. Number of lipid droplet accumulated in […] cells were analyzed using visual examination of the microscopic images and additional quantification by image segmentation using Cell Profiler.
Structure (SMILES),Potency,max response
CCOc1ccc(CCNC(=O)c2cc3sccc3n2CCN(C)C)cc1OCC,"inconclusive: 18.7 µM [inhibitor, partial curve, poor fit]",
CCOc1ccc(CCNC(=O)c2cc3cccnc3n2Cc2cccc(C)n2)cc1OCC,"inconclusive: 7.43 µM [inhibitor, partial curve, poor fit]",
CCOc1ccc(CCNC(=O)c2ccc(Oc3ccccc3)cc2)cc1OCC,"inconclusive: 19.6 µM [inhibitor, partial curve, poor fit]",
CCOc1ccc(CCNC(=O)c2cc3ccccc3n2Cc2cccc(C)c2)cc1OCC,active: 0.264 µM,
CCOc1ccc(CCNC(=O)c2ccc(C(=O)c3ccccc3)cc2)cc1OCC,,inactive: -5.7%
CCOc1ccc(CCNC(=O)c2cc3ccncc3n2Cc2cccc(C)c2)cc1OCC,,inactive: -1.73%
